# Test results from publication PMC6925144, “A prospective compound screening contest identified broader inhibitors for Sirtuin 1” (Scientific Reports, 2019).
# The chains behind the UniProt entries cited, without tags or fusion partners. Residues count along the entry.
# UniProt Q96EB6, 2-747 limits assumed: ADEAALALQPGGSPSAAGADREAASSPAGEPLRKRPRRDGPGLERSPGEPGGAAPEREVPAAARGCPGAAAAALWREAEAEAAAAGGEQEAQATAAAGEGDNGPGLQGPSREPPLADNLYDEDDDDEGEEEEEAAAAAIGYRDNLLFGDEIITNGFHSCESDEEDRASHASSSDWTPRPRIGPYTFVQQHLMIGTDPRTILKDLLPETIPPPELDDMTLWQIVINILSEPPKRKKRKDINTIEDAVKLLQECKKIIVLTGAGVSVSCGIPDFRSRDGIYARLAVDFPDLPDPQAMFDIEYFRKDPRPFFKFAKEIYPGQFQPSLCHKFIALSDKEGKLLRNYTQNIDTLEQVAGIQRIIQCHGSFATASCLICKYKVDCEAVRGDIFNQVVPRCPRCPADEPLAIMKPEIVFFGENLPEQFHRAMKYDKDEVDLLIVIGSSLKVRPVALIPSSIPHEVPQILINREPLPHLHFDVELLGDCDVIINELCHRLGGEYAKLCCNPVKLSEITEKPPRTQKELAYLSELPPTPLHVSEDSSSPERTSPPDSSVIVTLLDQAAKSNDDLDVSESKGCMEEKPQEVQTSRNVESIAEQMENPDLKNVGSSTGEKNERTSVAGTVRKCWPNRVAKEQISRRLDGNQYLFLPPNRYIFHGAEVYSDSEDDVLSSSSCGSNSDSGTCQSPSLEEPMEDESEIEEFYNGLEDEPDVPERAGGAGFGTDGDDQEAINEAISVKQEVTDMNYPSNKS
# Whole data set: some 3,200 compounds, median “TSA(without NAD+) / Primary screening (TSA) / delta Tm (K)” near -0.07, cut for the highest 2% near 0.37. The list shows a part of the results.
# Target: NAD-dependent deacetylase Sirtuin 1 (human, UniProt Q96EB6)
# Assay: primary screen, delta tm
# Parameters: single well (n = 1)
# Details: 10 µM
# In short: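 Thermal shift of Sirtuin 1 measured without NAD+, compound at 10 µM (n = 1); value is ΔTm, with hits defined as ΔTm > 0.45 K or < −1.5 K. Hits retested at 5, 10, 20 µM (n = 4) and counterscreened on bovine carbonic anhydrase and ABL1 SH2 domain.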
row,Structure (SMILES),TSA(without NAD+) / Primary screening (TSA) / delta Tm (K)
1,N#Cc1c2c(c(Cl)n3c1nc1ccccc13)CCCC2,-0.02 K
2,COc1ccnc(N2CCN(C(=O)c3ccc(C(N)=O)s3)CC2)n1,0.06 K
3,Cc1c(C(=O)C2=C(O)C(=O)N(CCCN3CCOCC3)C2c2cccs2)cnn1-c1ccccc1 (stereo not drawn),-0.02 K
4,O=C(O)c1ccc2[nH]c(CO)nc2c1,-0.22 K
5,CC(C)=CCN,-0.13 K
6,COc1cc(OC)cc(C(=O)NCC(=O)OCC(=O)NCC(=O)Nc2ccc(F)c(F)c2F)c1,0.09 K
7,Cn1ncc2c(N3CCN(CC(=O)Nc4ccc(Cl)cn4)CC3)ncnc21,0.06 K
8,C=CCN(CCO)C(=O)Nc1cccc(I)c1,-0.08 K
9,Cc1cc(C)c(NC(=O)CN(C)C(=O)CNC(=O)C(C)(C)C)c(C)c1,0.02 K
10,Cc1nc(C)c(CC(=O)Oc2ccccc2)c(=O)[nH]1,-0.27 K
11,CCOc1ccc(-n2c(C)cc(C(=O)COc3ccc(C(N)=O)cc3)c2C)cc1,0.03 K
12,Nc1ncnc2c1cnn2-c1ccncc1,-0.23 K
13,COc1cccc(NC(=O)CN(C)C(=O)c2ccccc2SCC(=O)NC23CC4CC(CC(C4)C2)C3)c1,0.07 K
14,COc1ccc(C(=O)C2=C(O)C(=O)N(CCN3CCOCC3)C2c2ccccn2)cc1OC (stereo not drawn),0.17 K
15,CCCOc1cccc(C2C(C(=O)c3ccccc3)=C(O)C(=O)N2CCCN2CCOCC2)c1 (stereo not drawn),-0.08 K
16,CC(c1ccccc1F)N(C)C(=O)CN(C)c1ncnc2nc[nH]c12 (stereo not drawn),-0.03 K
17,CCCc1cc(N2CCC(Cc3ccccc3)CC2)n2ncnc2n1,-0.08 K
18,Cn1c(-c2cccnc2)[n+](C)c2ccccc21,-0.18 K
19,NC(=O)c1ccc(CN2CCN(CCO)CC2)cc1,-0.12 K
20,CN(Cc1ccc(N(C)C)cc1)C(=O)c1cnc2ccccn2c1=O,-0.13 K
21,CC(C)(C)N(Cc1ccccc1)C(=O)Cn1nnc2ccccc2c1=O,-0.13 K
22,O=C(Nc1ccccc1Oc1ccccc1)c1ccccc1[N+](=O)[O-],-0.18 K
23,CCc1ccccc1NC(=O)CNC(=O)CCc1nc2ccccc2[nH]1,-0.12 K
24,CCC(C)c1ccccc1NC(=O)Cc1coc2ccc3ccccc3c12 (stereo not drawn),-0.13 K

row,Structure (SMILES),TSA(without NAD+) / Primary screening (TSA) / delta Tm (K)
1,Cc1n[nH]c(=O)c2c(NC(=O)CN3CCC(O)CC3)oc(C)c12,-0.03 K
2,Nc1nc(-c2c(-c3ccccc3)[nH]c3ccccc23)cs1,0.09 K
3,COc1ccc2cccc(C=C3C(=O)NC(=S)NC3=O)c2c1,-0.22 K
4,CC(CC1CCCCCN1C(=O)OC(C)(C)C)NCc1cccc(C(N)=O)c1 (stereo not drawn),-0.13 K
5,Cc1c(NC=C2C(=O)NC(=S)NC2=O)c(=O)n(-c2ccccc2)n1C,0.07 K
6,Cc1ccc(C(=O)Nc2cccc(/C=c3/s/c(=C(\C#N)C(=O)NCc4ccco4)n(-c4c(C)cccc4C)c3=O)c2)cc1,0.15 K
7,CN(Cc1cccc2ccccc12)c1cc(=O)n2ccccc2n1,-0.43 K
8,Cc1ccc(Nc2nnc(SCC(=O)NC(=O)NCc3ccco3)s2)cc1,0.07 K
9,O=c1c2ccncc2ncn1CC(O)c1cccc(Cl)c1 (stereo not drawn),-0.14 K
10,O=C(NCCc1coc(-c2ccccc2)n1)c1cc(-c2ccco2)on1,0.19 K
11,CC1CCCC(NC(=O)COC(=O)CCCOc2ccccc2)C1C (stereo not drawn),-0.14 K
12,Cc1[nH]c2ccccc2c1C(=O)CN1CCC(C(N)=O)CC1,0.07 K
13,N=C(N)NCCN,-0.04 K
14,Cc1cc(C(=O)COC(=O)c2ccc(-c3ccc(O)cc3)cc2)c(C)n1C,-0.22 K
15,Oc1ccc2ccccc2c1/C=N/c1c(F)c(F)c(F)c(F)c1F,-0.13 K
16,O=C(CC12CC3CC(CC(C3)C1)C2)NCC(=O)Nc1ccc(Sc2nc3ccccc3[nH]2)cc1,0.18 K
17,COc1cccc(NN=C2C(=O)NC(=S)NC2=O)c1,-0.15 K
18,NC(=O)C1CCCCC1Nc1ncnc2cc(F)c(F)cc12 (stereo not drawn),0.06 K
19,O=C(O)C(=O)Nc1ccccc1,0.02 K
20,CC1CCc2[nH]c3ccc(C(=O)N(C)C)cc3c2C1 (stereo not drawn),-0.17 K
21,Cc1nc(C)c(C(=O)C2=C(O)C(=O)N(CCN3CCOCC3)C2c2ccco2)s1 (stereo not drawn),-0.08 K
22,CC1Cc2ccccc2N1c1ncnc2ccsc12 (stereo not drawn),0.07 K
23,CN(c1ccccc1)S(=O)(=O)c1cccc(NC(=O)c2cccc(C#N)c2)c1,0.13 K
24,O=C(CNC1=NS(=O)(=O)c2ccccc21)Nc1ccc(N2CCN(Cc3ccccc3)CC2)cc1,-0.05 K

row,Structure (SMILES),TSA(without NAD+) / Primary screening (TSA) / delta Tm (K)
1,CCCc1ccc(C(Nc2ccc3nnnn3n2)C(C)C)cc1 (stereo not drawn),-0.05 K
2,CC1CC1C(=O)NCc1ccccc1-c1ccc(CN2CCCC2)cc1 (stereo not drawn),0.02 K
3,O=C(C1=C(O)C(=O)N(CCCN2CCOCC2)C1c1cccs1)c1cc2ccccc2o1 (stereo not drawn),0.12 K
4,O=C(CC(c1ccccc1)c1ccccc1)N1CCN(c2ccc([N+](=O)[O-])c3cnccc23)CC1,-0.02 K
5,O=C1COc2cc(C(=O)Nc3ccc4c(c3)-c3ccccc3C4)ccc2N1,0.07 K
6,COc1ccc(Cl)cc1NC(=O)CSc1nnc(-c2ccc(Cl)cc2)n1N,-0.15 K
7,CC(C)C(CNC(=O)COc1ccc(C(N)=O)cc1)N1CCc2ccccc2C1 (stereo not drawn),0.02 K
8,CCCNC(=O)C(C#N)C(=O)c1cc2ccc(C)cc2nc1C (stereo not drawn),-0.22 K
9,C=CCOc1ccc(C(=O)C2=C(O)C(=O)N(CCN3CCOCC3)C2c2ccc(OCC)cc2)cc1 (stereo not drawn),0.07 K
10,C=CC(N)CO (stereo not drawn),-0.28 K
11,CC(=O)N1Cc2ccccc2CC1C(=O)NC1CCOc2ccccc21 (stereo not drawn),-0.13 K
12,CC(C)(C)C(=O)Nc1cccc(NC2CCCCNC2=O)c1 (stereo not drawn),-0.11 K
13,COc1ccc(C2C(C(=O)c3cccs3)=C(O)C(=O)N2CCCN2CCOCC2)cc1OC (stereo not drawn),-0.33 K
14,COc1cccc(C(=O)C2=C(O)C(=O)N(CCCN3CCOCC3)C2c2cccc(F)c2)c1 (stereo not drawn),-0.17 K
15,CC1CCCN(C(=O)CSc2nncn2-c2ccccc2)C1 (stereo not drawn),-0.07 K
16,Cc1cc(C)n(-c2nc(C)nc3c2cnn3-c2ccccc2)n1,-0.07 K
17,Cc1nn(C)c2nc(-c3ccccc3)cc(C(=O)N3CCN(Cc4ccccc4F)CC3)c12,-0.12 K
18,COc1ccnc(C(=O)NCC(C)(C)N2CCC(N(C)C)CC2)c1,-0.21 K
19,O=c1[nH]cnc2c1ncn2-c1ccccc1,-0.17 K
20,CCC(C)(N)CC,0.03 K
21,CC1(C)CC1N (stereo not drawn),-0.22 K
22,O=C(CN(Cc1ccco1)C(=O)Cc1coc2cc(O)ccc12)Nc1ccccc1C(F)(F)F,-0.04 K
23,O=C(Nc1cccc(S(=O)(=O)N2CCOCC2)c1)c1cn(-c2ccccc2)nc1-c1ccc(F)cc1,0.25 K
24,COc1cccc(C2C(C(=O)c3cc4ccccc4o3)=C(O)C(=O)N2CCCN2CCOCC2)c1 (stereo not drawn),0.08 K

# Reformatted bar-delimited: 4 of the compounds above.
row | Structure (SMILES) | TSA(without NAD+) / Primary screening (TSA) / delta Tm (K)
16 | Cc1cc(C)n(-c2nc(C)nc3c2cnn3-c2ccccc2)n1 | -0.07 K
17 | Cc1nn(C)c2nc(-c3ccccc3)cc(C(=O)N3CCN(Cc4ccccc4F)CC3)c12 | -0.12 K
18 | COc1ccnc(C(=O)NCC(C)(C)N2CCC(N(C)C)CC2)c1 | -0.21 K
19 | O=c1[nH]cnc2c1ncn2-c1ccccc1 | -0.17 K

# Following part:

row,Structure (SMILES),TSA(without NAD+) / Primary screening (TSA) / delta Tm (K)
1,Cn1ccnc1C(NCc1csc(-c2ccsc2)n1)c1cccc(F)c1 (stereo not drawn),-0.05 K
2,CS(=O)c1ccc(C(=O)Nc2ccccc2NC(=O)N2CCCC2)cc1 (stereo not drawn),-0.28 K
3,NC(=O)c1ccc(S(=O)(=O)N2CCN(c3ncnc4ccccc34)CC2)o1,-0.08 K
4,Cc1ccc(N(C)S(=O)(=O)c2cccc(C(=O)N(C)Cc3ccccc3Cl)c2)cc1,-0.24 K
5,C=C(C)CNC(=S)NC(C)c1cccc(NC(=O)c2ccccc2)c1 (stereo not drawn),-0.23 K
6,NC(=O)c1c(NC(=O)CSc2nc3sc4c(c3c(=O)n2-c2ccccc2)CCC4)sc2c1CCC2,-0.22 K
7,NC(=O)c1ccc(/C=C/C(=O)N2CCC(C(=O)O)(c3ccccc3)CC2)cc1,-0.03 K
8,CCOC(=O)C1=C(COC(=O)c2sc(-c3ccco3)nc2-c2ccccc2)NC(=O)NC1,-0.11 K
9,COc1ccc(/C=C2/Oc3ccc(Br)cc3C2=O)cc1,0.12 K
10,Fc1ccc(-c2cn3cc(Cl)cc(Cl)c3n2)cc1,-0.08 K
11,Cc1sc(NC(=O)c2cnc3ccccc3n2)nc1-c1ccc(F)c(F)c1,-0.11 K
12,NC(=O)c1cc(NCC(=O)N2CCc3ccccc32)c(F)cc1F,-0.12 K
13,COc1ccc(C2C(C(=O)/C=C/c3ccco3)=C(O)C(=O)N2CCN2CCOCC2)cc1 (stereo not drawn),0.06 K
14,Cn1cc(S(=O)(=O)N2CCC(C(=O)NCCOc3ccccc3)CC2)cc1C(N)=O,-0.08 K
15,NC(=O)c1cc(NC(=O)c2ccc(-c3ccccc3Cl)o2)ccc1Cl,-0.21 K
16,CCCCCc1nnc(NC(=O)c2cccc(S(=O)(=O)N(C)c3ccc(OC)cc3)c2)s1,0.22 K
17,COC(=O)c1ccc(C2C(C(=O)c3cccc(OC)c3)=C(O)C(=O)N2CCCN2CCOCC2)cc1 (stereo not drawn),-0.08 K
18,NC(=O)C1CCN(c2nc(-c3cccs3)nc3sc4c(c23)CCCC4)CC1,2.58 K
19,CCc1ccc(NC(c2cccnc2)c2ncc[nH]2)cc1CC (stereo not drawn),-0.18 K
20,O=C(O)c1cc(/N=C/c2c(O)ccc3ccccc23)ccc1O,-0.05 K
21,CC(CN)CN(C)C (stereo not drawn),-0.23 K
